Source: PubChem BioAssay AID504784 (Drosophila RNAi Screening Center, 2011)

- Aim: 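Genome-wide knock-down for genes giving too much or too little stored lipid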 (primary screen)
- Cells: Drosophila Kc167 embryonic cells
- Reagents: long dsRNA against Drosophila genes, about 250 ng dsRNA per well
- Duration: 4 days
- Treatment: cells fed 400 µM oleic acid bound to BSA
- Detection: 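Microscope images give a droplet-to-nucleus area ratio, taken as log and converted to a screen-wide B-score; higher values mean greater lipid storage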
- Reading the numbers: droplet/nuclear area B-score: higher = more stored lipid (overstorage)
In all, the deposit lists about 17,000 reagents; this is a random part of those with a known target gene and a result. 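Each column is one replicate's B-score; the combined score over replicates was not deposited, so single values may mislead.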 The numbers tell different reagents against one gene apart. A plus sign joins genes that one reagent is predicted to hit. No sequences are given here.

The opening 4 records as a preview:
droplet/nuclear area B-score, replicate 1 | droplet/nuclear area B-score, replicate 2 | droplet/nuclear area B-score, replicate 3 | gene | reagent no.
-1.04 | -0.0203 | 0.011 | CG1537 | 1
-0.47 | 0.532 | – | CG12992 | 1
-3.46 | 0.281 | – | CG14074 | 1
-0.229 | -1.03 | – | CG32099 | 1

Main list, repeating the preview:
droplet/nuclear area B-score, replicate 1 | droplet/nuclear area B-score, replicate 2 | droplet/nuclear area B-score, replicate 3 | gene | reagent no.
-1.04 | -0.0203 | 0.011 | CG1537 | 1
-0.47 | 0.532 | – | CG12992 | 1
-3.46 | 0.281 | – | CG14074 | 1
-0.229 | -1.03 | – | CG32099 | 1
-0.371 | 0.481 | – | aus | 1
0.57 | 2.88 | – | aus | 2
2.67 | 5.4 | – | aus | 3
-1.25 | -0.696 | – | CG11454 | 1
-0.0227 | 2.64 | – | CG30195 | 1
1.29 | -1.2 | 0.0132 | CG1463 | 1
-0.372 | -0.395 | – | CG4686 | 1
-1.45 | 0.0494 | – | CG13423 | 1
2.56 | 0.855 | – | Jhbp16 | 1
0.529 | -0.488 | – | scb | 1
0.795 | -1.73 | – | scb | 2
0.206 | -2.35 | – | Isha | 1
0.436 | -1.19 | -2.41 | CG14646 | 1
0.835 | 0.0679 | – | CG14646 | 2
-0.578 | 0.966 | – | Nazo | 1
-0.0571 | 1.14 | – | simj | 1
0.707 | 0.687 | – | Spc105R | 1
-0.421 | 0.364 | – | xmas | 1
3.8 | -0.0687 | – | xmas | 2
-0.376 | 0.0123 | – | CG3021 | 1
-0.731 | -0.807 | – | CG3021 | 2
-0.469 | -1.44 | 0.182 | CG9360 | 1
0.056 | -0.0411 | – | kune | 1
0.978 | -0.0389 | – | enok | 1
-1.88 | 1.36 | – | c(2)M | 1
-0.682 | 3.41 | – | CG8617 | 1
0.0212 | 1.12 | – | CG4983 | 1
-1.4 | 0.635 | – | CG10918 | 1
0.313 | -1.02 | -3.43 | CG3587 | 1
0.201 | 0.487 | – | CG3587 | 2
1.17 | 0.779 | – | CG12920 | 1
0.252 | -0.35 | – | IRSp53 | 1
2.93 | 0.833 | – | CG6244 | 1
-2.08 | -0.779 | – | CG33475 | 1
-0.0964 | 0.681 | – | CR18275 + CR18166 + CG32817 | 1
0.145 | -1.86 | – | CG12659 | 1
-0.308 | -0.516 | – | CG32568 | 1
-0.114 | 0.636 | -1.34 | lic | 1
2.19 | -0.901 | – | CG42507 + Trl | 1
-2.35 | -0.606 | -1.44 | CG42507 + Trl | 2
-1.73 | -0.317 | – | p38b | 1
-2.18 | 0.466 | – | CG14352 | 1
-0.00163 | 9.1 | – | CG6689 | 1
1.04 | 0.69 | – | mia | 1
0.916 | 1.52 | – | CG13170 | 1
0.00548 | -1.64 | – | EndoU | 1
-0.271 | 0.528 | 1.35 | Cyp12c1 | 1
-0.787 | -0.0299 | – | Snap25 | 1
-0.721 | -0.496 | – | Snap25 | 2
-0.42 | -0.858 | – | Cpr65Ec | 1
-0.239 | – | – | snu | 1
0.582 | -0.0408 | – | CG33292 (retired record) | 1
